The values that follow come from the supplement of paper PMC10849652.

Chains of the proteins cited; added tags and fusions are not shown. Lines headed by an entry give the natural chain unless they say otherwise; changes in a name come on top.
UniProt Q5T440: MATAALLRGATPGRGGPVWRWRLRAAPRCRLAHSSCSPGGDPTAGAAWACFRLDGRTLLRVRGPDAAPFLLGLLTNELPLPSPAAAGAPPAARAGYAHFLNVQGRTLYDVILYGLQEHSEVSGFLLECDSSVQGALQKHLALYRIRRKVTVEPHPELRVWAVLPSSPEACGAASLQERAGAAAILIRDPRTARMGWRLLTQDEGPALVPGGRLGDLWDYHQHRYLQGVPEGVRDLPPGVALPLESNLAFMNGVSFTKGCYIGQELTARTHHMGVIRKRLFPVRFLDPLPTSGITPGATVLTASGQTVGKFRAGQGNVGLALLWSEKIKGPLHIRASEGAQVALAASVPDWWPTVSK
UniProt P00492: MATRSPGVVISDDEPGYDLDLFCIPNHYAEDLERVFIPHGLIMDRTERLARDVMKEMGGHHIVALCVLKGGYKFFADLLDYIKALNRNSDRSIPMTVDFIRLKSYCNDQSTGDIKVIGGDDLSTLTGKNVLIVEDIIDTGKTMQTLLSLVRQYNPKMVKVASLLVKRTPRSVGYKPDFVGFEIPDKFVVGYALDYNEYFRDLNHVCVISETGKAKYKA
UniProt Q92598: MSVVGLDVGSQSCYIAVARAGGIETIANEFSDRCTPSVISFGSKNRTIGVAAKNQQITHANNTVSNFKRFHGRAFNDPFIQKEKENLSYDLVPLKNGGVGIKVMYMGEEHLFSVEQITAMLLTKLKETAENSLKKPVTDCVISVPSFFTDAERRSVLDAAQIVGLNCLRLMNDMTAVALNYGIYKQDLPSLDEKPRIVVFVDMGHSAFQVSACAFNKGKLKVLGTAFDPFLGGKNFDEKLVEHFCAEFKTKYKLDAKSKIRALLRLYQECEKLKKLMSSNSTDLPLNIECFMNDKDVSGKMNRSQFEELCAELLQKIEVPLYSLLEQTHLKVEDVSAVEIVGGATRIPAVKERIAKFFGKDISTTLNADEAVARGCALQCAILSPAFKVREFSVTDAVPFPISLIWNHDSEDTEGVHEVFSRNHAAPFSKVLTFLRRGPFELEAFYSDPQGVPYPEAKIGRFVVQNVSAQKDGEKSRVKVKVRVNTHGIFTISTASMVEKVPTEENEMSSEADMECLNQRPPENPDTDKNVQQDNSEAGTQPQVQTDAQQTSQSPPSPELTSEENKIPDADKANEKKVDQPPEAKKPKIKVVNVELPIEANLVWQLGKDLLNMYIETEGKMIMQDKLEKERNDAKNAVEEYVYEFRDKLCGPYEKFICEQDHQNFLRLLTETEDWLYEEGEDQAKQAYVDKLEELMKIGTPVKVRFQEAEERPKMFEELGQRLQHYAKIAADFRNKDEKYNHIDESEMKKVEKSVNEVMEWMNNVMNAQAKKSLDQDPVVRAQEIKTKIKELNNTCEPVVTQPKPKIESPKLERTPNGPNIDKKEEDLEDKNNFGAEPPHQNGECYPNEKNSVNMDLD
UniProt Q8TCT9: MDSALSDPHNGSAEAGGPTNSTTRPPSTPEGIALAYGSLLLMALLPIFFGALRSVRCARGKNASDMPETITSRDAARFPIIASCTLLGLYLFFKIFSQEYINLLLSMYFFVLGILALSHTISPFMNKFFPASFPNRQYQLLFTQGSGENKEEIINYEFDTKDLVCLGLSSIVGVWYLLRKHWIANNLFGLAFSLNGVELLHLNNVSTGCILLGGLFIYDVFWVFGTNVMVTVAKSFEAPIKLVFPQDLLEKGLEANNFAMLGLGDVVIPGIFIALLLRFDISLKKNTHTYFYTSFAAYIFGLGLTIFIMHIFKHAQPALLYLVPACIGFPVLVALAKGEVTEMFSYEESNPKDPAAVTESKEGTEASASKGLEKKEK
UniProt Q8NBQ5: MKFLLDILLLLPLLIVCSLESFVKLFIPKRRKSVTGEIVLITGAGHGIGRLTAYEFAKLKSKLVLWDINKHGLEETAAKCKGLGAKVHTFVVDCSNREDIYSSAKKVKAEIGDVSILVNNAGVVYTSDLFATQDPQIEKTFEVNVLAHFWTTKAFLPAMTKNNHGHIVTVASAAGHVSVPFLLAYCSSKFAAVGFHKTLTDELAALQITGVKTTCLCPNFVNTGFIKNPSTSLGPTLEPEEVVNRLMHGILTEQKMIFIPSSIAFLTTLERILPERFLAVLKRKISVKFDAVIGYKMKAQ
UniProt O43464: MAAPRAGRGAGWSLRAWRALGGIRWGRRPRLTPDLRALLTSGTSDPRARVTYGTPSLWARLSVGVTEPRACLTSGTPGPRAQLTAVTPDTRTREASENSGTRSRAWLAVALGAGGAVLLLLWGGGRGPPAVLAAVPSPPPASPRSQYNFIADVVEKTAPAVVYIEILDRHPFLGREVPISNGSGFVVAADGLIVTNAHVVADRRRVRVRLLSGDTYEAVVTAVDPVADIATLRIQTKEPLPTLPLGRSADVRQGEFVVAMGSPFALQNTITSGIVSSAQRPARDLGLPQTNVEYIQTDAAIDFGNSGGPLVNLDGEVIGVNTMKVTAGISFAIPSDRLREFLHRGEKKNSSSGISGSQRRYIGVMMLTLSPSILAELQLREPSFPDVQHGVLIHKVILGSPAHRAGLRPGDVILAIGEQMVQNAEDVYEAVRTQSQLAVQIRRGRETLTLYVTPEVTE
UniProt Q9BTY7: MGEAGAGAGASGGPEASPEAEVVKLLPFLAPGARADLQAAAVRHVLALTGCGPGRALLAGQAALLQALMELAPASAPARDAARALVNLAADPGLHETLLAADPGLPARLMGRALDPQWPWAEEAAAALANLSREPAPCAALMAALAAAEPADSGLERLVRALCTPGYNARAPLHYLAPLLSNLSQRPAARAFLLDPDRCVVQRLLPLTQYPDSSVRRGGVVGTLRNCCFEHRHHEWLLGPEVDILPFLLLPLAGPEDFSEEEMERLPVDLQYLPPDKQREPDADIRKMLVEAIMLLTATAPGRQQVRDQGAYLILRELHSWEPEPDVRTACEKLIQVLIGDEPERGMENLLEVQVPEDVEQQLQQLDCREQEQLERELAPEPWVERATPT
UniProt Q92506: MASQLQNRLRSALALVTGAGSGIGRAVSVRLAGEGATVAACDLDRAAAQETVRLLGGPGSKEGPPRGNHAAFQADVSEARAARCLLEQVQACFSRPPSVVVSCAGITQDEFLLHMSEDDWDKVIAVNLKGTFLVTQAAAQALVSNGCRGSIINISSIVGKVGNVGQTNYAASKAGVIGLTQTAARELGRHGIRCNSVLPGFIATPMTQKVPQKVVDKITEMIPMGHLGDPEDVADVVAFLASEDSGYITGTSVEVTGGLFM
UniProt Q9NZL4: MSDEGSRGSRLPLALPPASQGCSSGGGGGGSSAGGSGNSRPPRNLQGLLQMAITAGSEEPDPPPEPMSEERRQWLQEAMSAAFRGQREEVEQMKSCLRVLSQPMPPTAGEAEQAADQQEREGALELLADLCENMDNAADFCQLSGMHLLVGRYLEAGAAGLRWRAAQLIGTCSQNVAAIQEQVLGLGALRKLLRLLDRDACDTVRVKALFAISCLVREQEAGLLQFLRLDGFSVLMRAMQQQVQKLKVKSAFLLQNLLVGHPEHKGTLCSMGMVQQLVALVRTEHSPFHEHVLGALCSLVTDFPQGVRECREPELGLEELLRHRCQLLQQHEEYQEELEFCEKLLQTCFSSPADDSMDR
UniProt Q7LGA3: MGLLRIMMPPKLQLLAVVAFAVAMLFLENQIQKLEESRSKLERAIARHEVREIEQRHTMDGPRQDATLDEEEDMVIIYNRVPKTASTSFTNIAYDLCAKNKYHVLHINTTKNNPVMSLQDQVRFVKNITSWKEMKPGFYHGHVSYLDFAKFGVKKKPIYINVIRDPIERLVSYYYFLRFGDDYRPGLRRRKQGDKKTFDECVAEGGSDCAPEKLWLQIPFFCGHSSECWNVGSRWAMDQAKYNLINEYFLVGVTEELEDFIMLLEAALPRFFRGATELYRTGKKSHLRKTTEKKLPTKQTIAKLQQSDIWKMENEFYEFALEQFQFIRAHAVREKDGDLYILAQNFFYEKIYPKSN
UniProt P31943: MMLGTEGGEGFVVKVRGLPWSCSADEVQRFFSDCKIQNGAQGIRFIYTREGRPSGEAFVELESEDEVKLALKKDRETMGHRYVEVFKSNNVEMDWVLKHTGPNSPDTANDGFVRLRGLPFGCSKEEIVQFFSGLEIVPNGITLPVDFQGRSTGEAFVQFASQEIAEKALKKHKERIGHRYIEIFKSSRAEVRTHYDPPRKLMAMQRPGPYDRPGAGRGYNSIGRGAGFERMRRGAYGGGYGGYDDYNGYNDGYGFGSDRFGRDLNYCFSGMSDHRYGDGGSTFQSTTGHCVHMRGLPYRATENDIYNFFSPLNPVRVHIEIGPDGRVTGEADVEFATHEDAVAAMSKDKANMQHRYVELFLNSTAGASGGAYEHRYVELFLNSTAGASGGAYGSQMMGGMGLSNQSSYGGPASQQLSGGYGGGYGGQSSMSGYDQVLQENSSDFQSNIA
UniProt Q9BUJ2: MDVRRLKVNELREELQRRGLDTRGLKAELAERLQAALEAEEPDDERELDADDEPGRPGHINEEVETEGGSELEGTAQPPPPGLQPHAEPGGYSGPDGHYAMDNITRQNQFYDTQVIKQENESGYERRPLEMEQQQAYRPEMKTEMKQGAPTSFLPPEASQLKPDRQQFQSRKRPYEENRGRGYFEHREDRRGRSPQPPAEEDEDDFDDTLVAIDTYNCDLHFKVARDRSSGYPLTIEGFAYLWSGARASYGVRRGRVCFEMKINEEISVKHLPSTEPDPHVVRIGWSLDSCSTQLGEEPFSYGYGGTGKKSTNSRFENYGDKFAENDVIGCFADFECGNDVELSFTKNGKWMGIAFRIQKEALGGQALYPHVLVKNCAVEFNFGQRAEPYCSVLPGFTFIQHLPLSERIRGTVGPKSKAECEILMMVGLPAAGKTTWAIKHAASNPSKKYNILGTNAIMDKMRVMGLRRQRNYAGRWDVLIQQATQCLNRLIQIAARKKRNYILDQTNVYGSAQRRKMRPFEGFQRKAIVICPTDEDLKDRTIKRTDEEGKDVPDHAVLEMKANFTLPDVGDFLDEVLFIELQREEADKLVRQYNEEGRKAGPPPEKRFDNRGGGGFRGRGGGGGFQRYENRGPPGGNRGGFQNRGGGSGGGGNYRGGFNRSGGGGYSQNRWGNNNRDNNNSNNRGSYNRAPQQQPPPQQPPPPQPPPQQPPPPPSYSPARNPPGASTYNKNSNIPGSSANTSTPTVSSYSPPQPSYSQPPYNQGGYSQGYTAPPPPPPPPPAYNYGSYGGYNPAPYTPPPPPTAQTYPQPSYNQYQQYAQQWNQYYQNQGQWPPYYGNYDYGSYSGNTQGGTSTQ
UniProt P07910: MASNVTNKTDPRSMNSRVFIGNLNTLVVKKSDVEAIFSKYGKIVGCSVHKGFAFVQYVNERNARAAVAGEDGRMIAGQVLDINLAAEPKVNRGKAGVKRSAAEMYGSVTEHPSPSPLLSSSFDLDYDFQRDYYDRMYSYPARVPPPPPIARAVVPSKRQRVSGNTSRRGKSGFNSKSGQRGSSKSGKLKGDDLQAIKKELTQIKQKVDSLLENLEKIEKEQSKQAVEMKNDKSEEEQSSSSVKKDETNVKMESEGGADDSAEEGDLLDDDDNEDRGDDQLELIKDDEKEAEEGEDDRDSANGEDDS
UniProt Q13151: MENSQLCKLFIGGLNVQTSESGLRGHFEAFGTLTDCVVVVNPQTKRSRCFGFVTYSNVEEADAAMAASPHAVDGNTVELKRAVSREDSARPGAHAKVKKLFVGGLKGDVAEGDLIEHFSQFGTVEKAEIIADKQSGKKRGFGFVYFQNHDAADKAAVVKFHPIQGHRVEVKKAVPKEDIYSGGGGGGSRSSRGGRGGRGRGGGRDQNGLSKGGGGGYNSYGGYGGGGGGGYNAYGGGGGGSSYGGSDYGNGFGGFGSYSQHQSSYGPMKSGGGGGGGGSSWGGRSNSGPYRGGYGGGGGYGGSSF
UniProt Q53T59: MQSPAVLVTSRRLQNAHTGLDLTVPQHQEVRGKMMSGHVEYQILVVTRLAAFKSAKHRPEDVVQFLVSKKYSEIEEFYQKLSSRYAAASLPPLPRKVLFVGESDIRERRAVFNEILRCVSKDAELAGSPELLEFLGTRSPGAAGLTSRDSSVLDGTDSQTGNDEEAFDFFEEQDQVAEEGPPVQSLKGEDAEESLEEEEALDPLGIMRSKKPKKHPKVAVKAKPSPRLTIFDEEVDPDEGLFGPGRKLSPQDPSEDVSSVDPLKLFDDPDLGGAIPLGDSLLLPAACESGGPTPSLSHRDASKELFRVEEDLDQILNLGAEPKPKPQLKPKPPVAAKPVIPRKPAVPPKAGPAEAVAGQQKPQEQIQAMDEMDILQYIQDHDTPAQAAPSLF
UniProt Q14103: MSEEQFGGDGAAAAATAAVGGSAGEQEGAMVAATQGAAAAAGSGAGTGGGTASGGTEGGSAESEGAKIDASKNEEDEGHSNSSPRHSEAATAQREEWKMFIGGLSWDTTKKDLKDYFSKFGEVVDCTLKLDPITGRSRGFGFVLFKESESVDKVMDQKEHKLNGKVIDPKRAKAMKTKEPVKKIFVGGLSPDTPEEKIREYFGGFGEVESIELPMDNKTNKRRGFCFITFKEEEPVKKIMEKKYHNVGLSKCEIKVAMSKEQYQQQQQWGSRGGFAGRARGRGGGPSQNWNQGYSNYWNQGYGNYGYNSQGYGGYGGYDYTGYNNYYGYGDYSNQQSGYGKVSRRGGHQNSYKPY

The list shows a part of the results.

Compound in one test: C1=CC=C(C=C1)[C@H](COC2=CC3=C(C=C2)NC(=O)N3)NC(=O)C4=CC=CN(C4=O)CC5=CC(=C(C=C5)F)F
The experiment in a line: log2 fold change, soluble protein after heating vs DMSO (PISA); higher = thermal stabilisation; K562 cells, 10 uM, 30 min; active = over 0.2 and 3.5 SD of the protein, either way, in both replicates (recomputed). An outline of the steps:
(§1)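 For each measurement, 10 μM compound was applied for 30 min to K562 cells at 2×10^6 cells/mL. Aliquots were heated for 3 min across 48°C-58°C, pooled, and extracted in PBS with 0.5% NP-40 at 4°C; the supernatant after 21,000xg for 90 min was soluble protein. This was quantified by TMTpro 16plex LC-MS/MS with channel sums equalised, and thermal stability was reported relative to control samples from duplicates, on a log2 fold-change scale.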
Consider IBA57 (UniProt Q5T440), for which the log2 fold change is inactive: -0.018.

HSPG2 (UniProt P98160): the log2 fold change was inactive: -0.007.

For the target HPRT1 (UniProt P00492), the log2 fold change was inactive: -0.001.

For HP1BP3 (UniProt Q5SSJ5), the log2 fold change was inactive: 0.015.

Take HSPH1 (UniProt Q92598): the log2 fold change is inactive: -0.009.

As for HM13 isoform 2 (UniProt Q8TCT9), the log2 fold change is inactive: 0.007.

As for IARS (UniProt P41252), the log2 fold change is inactive: -0.008.

For HMGCR isoform 3 (UniProt P04035), the log2 fold change was inactive: -0.011.

Turning to HOOK3 (UniProt Q86VS8), the log2 fold change was inactive: -0.065.

For HSD17B11 (UniProt Q8NBQ5), the log2 fold change was inactive: 0.028.

Regarding HNRNPH3 (UniProt P31942), the log2 fold change was inactive: 0.057.

In the case of HMGN5 (UniProt Q5JSK9), the log2 fold change was inactive: -0.055.

Regarding HTRA2 (UniProt O43464), the log2 fold change was inactive: 0.03.

Take HGH1 (UniProt Q9BTY7): the log2 fold change was inactive: -0.042.

For the target HSD17B8 (UniProt Q92506), the log2 fold change was inactive: -0.002.

On to HSPBP1 isoform 3 (UniProt Q9NZL4), for which the log2 fold change is inactive: -0.032.

For HNRNPDL (UniProt O14979), the log2 fold change is inactive: 0.046.

Take HIP1 (UniProt O00291): the log2 fold change was inactive: 0.137.

For HS2ST1 (UniProt Q7LGA3), the log2 fold change is inactive: 0.06.

As for HNRNPH1 (UniProt P31943), the log2 fold change is inactive: -0.032.

As for HMBS (UniProt F5H226), the log2 fold change is inactive: 0.294.

Regarding HSDL2 (UniProt Q6YN16), the log2 fold change is inactive: -0.081.

With HNRNPUL1 (UniProt Q9BUJ2), the log2 fold change was inactive: -0.021.

On to HNRNPC isoform 2 (UniProt P07910), for which the log2 fold change is inactive: 0.102.

For the target HNRNPA0 (UniProt Q13151), the log2 fold change was inactive: 0.231.

For HS1BP3 (UniProt Q53T59), the log2 fold change was inactive: -0.046.

Turning to HNRNPA2B1 (UniProt P22626), the log2 fold change was inactive: 0.157.

Turning to HNRNPD isoform 4 (UniProt Q14103), the log2 fold change is inactive: 0.101.

Regarding HIST2H2BF isoform 2 (UniProt Q5QNW6), the log2 fold change was inactive: 0.148.

Regarding ICE2 (UniProt Q659A1), the log2 fold change was inactive: -0.008.

On to HNRNPK isoform 2 (UniProt P61978), for which the log2 fold change was inactive: -0.027.

For HRAS (UniProt P01112), the log2 fold change is inactive: 0.015.

Compound in another test: CC1=C(SC2=C1C(=N[C@H](C3=NN=C(N32)C)CC(=O)N)C4=CC=C(C=C4)Cl)C
The test is described as above. An outline of the steps:
as §1
As to IBA57 (UniProt Q5T440), the log2 fold change was inactive: 0.068.

Take HSPG2 (UniProt P98160): the log2 fold change was inactive: 0.104.

For the target HPRT1 (UniProt P00492), the log2 fold change was inactive: 0.01.

HP1BP3 (UniProt Q5SSJ5): the log2 fold change was inactive: -0.04.

Regarding HSPH1 (UniProt Q92598), the log2 fold change was inactive: 0.

Consider HM13 isoform 2 (UniProt Q8TCT9), for which the log2 fold change is inactive: 0.017.

Consider IARS (UniProt P41252), for which the log2 fold change is inactive: -0.177.

On to HMGCR isoform 3 (UniProt P04035), for which the log2 fold change was inactive: 0.034.

With HOOK3 (UniProt Q86VS8), the log2 fold change is inactive: -0.003.

HSD17B11 (UniProt Q8NBQ5): the log2 fold change is inactive: 0.038.

With HNRNPH3 (UniProt P31942), the log2 fold change was inactive: -0.329.

On to HMGN5 (UniProt Q5JSK9), for which the log2 fold change was inactive: 0.075.

As for HTRA2 (UniProt O43464), the log2 fold change is inactive: 0.01.

For the target HGH1 (UniProt Q9BTY7), the log2 fold change is inactive: -0.021.

For the target HSD17B8 (UniProt Q92506), the log2 fold change is inactive: 0.022.

HSPBP1 isoform 3 (UniProt Q9NZL4): the log2 fold change was inactive: 0.022.

As for HNRNPDL (UniProt O14979), the log2 fold change is inactive: -0.12.

On to HIP1 (UniProt O00291), for which the log2 fold change is inactive: -0.009.

As to HS2ST1 (UniProt Q7LGA3), the log2 fold change is inactive: 0.015.

With HNRNPH1 (UniProt P31943), the log2 fold change is inactive: -0.007.

As to HMBS (UniProt F5H226), the log2 fold change was inactive: -0.314.

On to HSDL2 (UniProt Q6YN16), for which the log2 fold change was inactive: 0.077.

As for HNRNPUL1 (UniProt Q9BUJ2), the log2 fold change is inactive: -0.028.

Regarding HNRNPC isoform 2 (UniProt P07910), the log2 fold change is inactive: -0.441.

For HNRNPA0 (UniProt Q13151), the log2 fold change is inactive: -0.054.

On to HS1BP3 (UniProt Q53T59), for which the log2 fold change is inactive: 0.087.

Take HNRNPA2B1 (UniProt P22626): the log2 fold change is inactive: -0.318.

HNRNPD isoform 4 (UniProt Q14103): the log2 fold change is inactive: -0.156.

For the target HIST2H2BF isoform 2 (UniProt Q5QNW6), the log2 fold change was inactive: -0.273.

As to ICE2 (UniProt Q659A1), the log2 fold change was inactive: 0.122.

Regarding HNRNPK isoform 2 (UniProt P61978), the log2 fold change is inactive: 0.012.

On to HRAS (UniProt P01112), for which the log2 fold change is inactive: 0.116.

Compound in another test: CC1=C2C(=CC=C1)N=C(N(C2=O)C3=CC=CC=C3C)CN4C=NC5=C(N=CN=C54)N
Described as above. An outline of the steps: as §1
As to IBA57 (UniProt Q5T440), the log2 fold change was inactive: 0.057.

Regarding HSPG2 (UniProt P98160), the log2 fold change is inactive: -0.003.

With HPRT1 (UniProt P00492), the log2 fold change was inactive: -0.032.

On to HP1BP3 (UniProt Q5SSJ5), for which the log2 fold change was inactive: 0.087.

HSPH1 (UniProt Q92598): the log2 fold change was inactive: 0.045.

For the target HM13 isoform 2 (UniProt Q8TCT9), the log2 fold change was inactive: 0.

On to IARS (UniProt P41252), for which the log2 fold change was inactive: -0.034.

For the target HMGCR isoform 3 (UniProt P04035), the log2 fold change is inactive: 0.045.

Consider HOOK3 (UniProt Q86VS8), for which the log2 fold change is inactive: 0.018.

HSD17B11 (UniProt Q8NBQ5): the log2 fold change is inactive: 0.

On to HNRNPH3 (UniProt P31942), for which the log2 fold change was inactive: -0.169.

Take HMGN5 (UniProt Q5JSK9): the log2 fold change is inactive: 0.291.

For the target HTRA2 (UniProt O43464), the log2 fold change was inactive: 0.05.

In the case of HGH1 (UniProt Q9BTY7), the log2 fold change was inactive: 0.07.

Take HSD17B8 (UniProt Q92506): the log2 fold change is inactive: -0.025.

For the target HSPBP1 isoform 3 (UniProt Q9NZL4), the log2 fold change is inactive: 0.024.

HNRNPDL (UniProt O14979): the log2 fold change is inactive: -0.139.

Turning to HIP1 (UniProt O00291), the log2 fold change is inactive: 0.106.

Turning to HS2ST1 (UniProt Q7LGA3), the log2 fold change is inactive: -0.019.

For the target HNRNPH1 (UniProt P31943), the log2 fold change is inactive: 0.045.

Take HMBS (UniProt F5H226): the log2 fold change is inactive: 0.343.

With HSDL2 (UniProt Q6YN16), the log2 fold change is inactive: 0.048.

Regarding HNRNPUL1 (UniProt Q9BUJ2), the log2 fold change is inactive: 0.024.

HNRNPC isoform 2 (UniProt P07910): the log2 fold change was inactive: -0.171.

HNRNPA0 (UniProt Q13151): the log2 fold change is inactive: -0.05.

With HS1BP3 (UniProt Q53T59), the log2 fold change was inactive: -0.001.

For HNRNPA2B1 (UniProt P22626), the log2 fold change was inactive: -0.181.

For HNRNPD isoform 4 (UniProt Q14103), the log2 fold change was inactive: -0.401.

On to HIST2H2BF isoform 2 (UniProt Q5QNW6), for which the log2 fold change is inactive: -0.29.

ICE2 (UniProt Q659A1): the log2 fold change is inactive: 0.049.

For HNRNPK isoform 2 (UniProt P61978), the log2 fold change is inactive: 0.047.

On to HRAS (UniProt P01112), for which the log2 fold change was inactive: -0.03.
